Results taken from the supplement of paper PMC4604168 (melanoma cell lines).
The list shows a part of the results. Repeats are few or missing, and single values can be far off.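 The apoptosis fraction was the count of cleaved-PARP antibody-stained nuclei relative to all DNA-stained nuclei, imaged in 1,536-well plates. Screening doses were set so most cells survived, and baseline and induced cleaved-PARP levels vary greatly across cell lines.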

These compounds were tested on A2058 (assay: cleaved PARP positive nuclei fraction relative to DMSO control; melanoma cells; higher = more apoptosis). Conditions: library dose: low library concentration; 72 h.

SMILES | cleaved PARP positive nuclei fraction [%]
Nc1cccc2c1CN(C1CCC(=O)NC1=O)C2=O (stereo not drawn) [lenalidomide] + Cn1cc(/C=C2\C(=O)Nc3cccnc32)c2ccccc21 [GW441756] (first compound 1 µM, partner dose 0.4 µM) | 68.5
Cc1nc(Nc2ncc(C(=O)Nc3c(C)cccc3Cl)s2)cc(N2CCN(CCO)CC2)n1 [dasatanib] + c1cc(-c2cnn3cc(-c4ccc(OCCN5CCCCC5)cc4)cnc23)ccn1 [Dorsomorphin] (first compound 0.004 µM, partner dose 0.4 µM) | 130
Cn1cncc1[C@@](N)(c1ccc(Cl)cc1)c1ccc2c(c1)c(-c1cccc(Cl)c1)cc(=O)n2C [tipifarnib] + O=C(O)C(=O)Nc1sc2c(c1C(=O)O)CCNC2 [TCS401] (first compound 0.01 µM, partner dose 1.66667 µM) | 188
Cn1c(Nc2ccc(C(F)(F)F)cc2)nc2cc(Oc3ccnc(-c4ncc(C(F)(F)F)[nH]4)c3)ccc21 + O=C(Nc1ccccc1)c1cc([N+](=O)[O-])ccc1Cl [GW9662] (first compound 0.08 µM, partner dose 2 µM) | 133
Cn1cncc1[C@@](N)(c1ccc(Cl)cc1)c1ccc2c(c1)c(-c1cccc(Cl)c1)cc(=O)n2C [tipifarnib] + Oc1nc(-c2ccc(C(F)(F)F)cc2)nc2c1CSCC2 [XAV939] (first compound 0.01 µM, partner dose 2 µM) | 102
Cn1nnc2c(C(N)=O)ncn2c1=O [temozolomide] + COc1ccc2c(c1)CCC1C2CCC2(C)C(NCCCCCCN3C(=O)C=CC3=O)CCC12 [U73122] (first compound 2 µM, partner dose 0.4 µM) | 213

These compounds were tested on A375 in the same assay as above. Conditions: library dose: low library concentration; 72 h.

SMILES | cleaved PARP positive nuclei fraction [%]
OCCn1cc(-c2cnc3nnn(Cc4ccc5ncccc5c4)c3n2)cn1 + Oc1cc(-c2nc(-c3ccccc3)[nH]c2-c2ccncc2)ccc1Cl [L779450] (first compound 1 µM, partner dose 0.2 µM) | 47.4
CO[C@@H]1[C@H](N(C)C(=O)c2ccccc2)C[C@H]2O[C@]1(C)n1c3ccccc3c3c4c(c5c6ccccc6n2c5c31)C(=O)NC4 [Midostaurin] + O=C(Nc1ccccc1)c1cc([N+](=O)[O-])ccc1Cl [GW9662] (first compound 0.08 µM, partner dose 2 µM) | 103
CC1(C)NC(=O)N(c2ccc([N+](=O)[O-])c(C(F)(F)F)c2)C1=O [nilutamide] + COC(=O)c1sccc1S(=O)(=O)Nc1ccc(Nc2ccccc2)cc1OC [GSK0660] (first compound 1 µM, partner dose 1 µM) | 45.4
Cc1nc(Nc2ncc(C(=O)Nc3c(C)cccc3Cl)s2)cc(N2CCN(CCO)CC2)n1 [dasatanib] + Cc1cc([N+](=O)[O-])ccc1NS(=O)(=O)c1cc(Cl)ccc1Cl [FH535] (first compound 0.004 µM, partner dose 1 µM) | 147
C[C@@H]1CCN(C(=O)CC#N)C[C@@H]1N(C)c1ncnc2[nH]ccc12 + O=C(Nc1ccccc1)c1cc([N+](=O)[O-])ccc1Cl [GW9662] (first compound 1 µM, partner dose 2 µM) | 109
C=CCn1c(=O)c2cnc(Nc3ccc(N4CCN(C)CC4)cc3)nc2n1-c1cccc(C(C)(C)O)n1 + O=c1cc(-c2cccc3c2Sc2ccccc2S3)oc(N2CCOCC2)c1 [KU55933] (first compound 0.02 µM, partner dose 1 µM) | 181
Cc1ccc(NC(=O)c2cccc(N(C)C)c2)cc1NC(=O)c1ccc(O)cc1 + N#Cc1c(O)c2c(-c3ccc(-c4ccccc4O)cc3)csc2[nH]c1=O [A769662] (first compound 2 µM, partner dose 2 µM) | 86.9
Cc1cc(N2CCOCC2)cc2[nH]c(-c3c(NC[C@@H](O)c4cccc(Cl)c4)cc[nH]c3=O)nc12 + O=C(O)C(=O)Nc1sc2c(c1C(=O)O)CCNC2 [TCS401] (first compound 0.2 µM, partner dose 1.66667 µM) | 192
C=CCn1c(=O)c2cnc(Nc3ccc(N4CCN(C)CC4)cc3)nc2n1-c1cccc(C(C)(C)O)n1 + CCN(CC)CCCCNc1ncc2cc(-c3cc(OC)cc(OC)c3)c(NC(=O)NC(C)(C)C)nc2n1 [PD173074] (first compound 0.02 µM, partner dose 0.1 µM) | 439
Cc1cc(N2CCOCC2)cc2[nH]c(-c3c(NC[C@@H](O)c4cccc(Cl)c4)cc[nH]c3=O)nc12 + O=c1cc(-c2cccc3c2Sc2ccccc2S3)oc(N2CCOCC2)c1 [KU55933] (first compound 0.2 µM, partner dose 1 µM) | 164
C#Cc1cccc(Nc2ncnc3cc(OCCOC)c(OCCOC)cc23)c1 [erlotinib] + O=c1cc(-c2cccc3c2Sc2ccccc2S3)oc(N2CCOCC2)c1 [KU55933] (first compound 0.8 µM, partner dose 1 µM) | 112
Cn1c(Nc2ccc(C(F)(F)F)cc2)nc2cc(Oc3ccnc(-c4ncc(C(F)(F)F)[nH]4)c3)ccc21 + O=C1NC(=O)/C(=C/c2ccc(-c3ccc(F)cc3O)o2)S1 [AS252424] (first compound 0.08 µM, partner dose 1 µM) | 207
NC(=O)Nc1cc(-c2cccc(F)c2)sc1C(=O)N[C@H]1CCCNC1 + CCCCCCCCCCCC1=C(O)C(=O)C=C(O)C1=O [Embelin] (first compound 0.02 µM, partner dose 1.2 µM) | 148
C=CCn1c(=O)c2cnc(Nc3ccc(N4CCN(C)CC4)cc3)nc2n1-c1cccc(C(C)(C)O)n1 + COc1cc2ncnc(Nc3ccc(Oc4ccccc4)cc3)c2cc1OC [SrcI1] (first compound 0.02 µM, partner dose 2 µM) | 69.1
Cn1c(Nc2ccc(C(F)(F)F)cc2)nc2cc(Oc3ccnc(-c4ncc(C(F)(F)F)[nH]4)c3)ccc21 + N#Cc1c(O)c2c(-c3ccc(-c4ccccc4O)cc3)csc2[nH]c1=O [A769662] (first compound 0.08 µM, partner dose 2 µM) | 327
Cn1nnc2c(C(N)=O)ncn2c1=O [temozolomide] + COc1cc(N2CCC(N3CCN(C)CC3)CC2)ccc1Nc1ncc(Cl)c(Nc2ccccc2S(=O)(=O)C(C)C)n1 [NVP-TAE684] (first compound 2 µM, partner dose 0.08 µM) | 255
O=C(CCCCCCC(=O)Nc1ccccc1)NO [vorinostat] + COc1ccc(COc2ccc(Cc3cnc(N)nc3N)cc2OC)cc1 [GW2580] (first compound 0.08 µM, partner dose 1 µM) | 48.6
C#Cc1cccc(Nc2ncnc3cc(OCCOC)c(OCCOC)cc23)c1 [erlotinib] + Oc1cc(-c2nc(-c3ccccc3)[nH]c2-c2ccncc2)ccc1Cl [L779450] (first compound 0.8 µM, partner dose 0.2 µM) | 396
C#Cc1cccc(Nc2ncnc3cc(OCCOC)c(OCCOC)cc23)c1 [erlotinib] + N#Cc1c(O)c2c(-c3ccc(-c4ccccc4O)cc3)csc2[nH]c1=O [A769662] (first compound 0.8 µM, partner dose 2 µM) | 188
COCC[n+]1c2c(n(Cc3cnccn3)c1C)C(=O)c1ccccc1C2=O + COc1ccc(-c2ccc3c(N4CCOCC4)nc(N4C[C@@H](C)O[C@@H](C)C4)nc3n2)cc1CO [KU0063794] (first compound 0.0004 µM, partner dose 0.02 µM) | 262
COc1cc(Nc2ncc(F)c(Nc3ccc4c(n3)NC(=O)C(C)(C)O4)n2)cc(OC)c1OC [Tamatinib] + O=C1NC(=O)/C(=C/c2ccc(-c3ccc(F)cc3O)o2)S1 [AS252424] (first compound 0.4 µM, partner dose 1 µM) | 105
OCCn1cc(-c2cnc3nnn(Cc4ccc5ncccc5c4)c3n2)cn1 + Cc1cc([N+](=O)[O-])ccc1NS(=O)(=O)c1cc(Cl)ccc1Cl [FH535] (first compound 1 µM, partner dose 1 µM) | 95.9
Nc1cccc2c1CN(C1CCC(=O)NC1=O)C2=O (stereo not drawn) [lenalidomide] + CCN(CC)CCCCNc1ncc2cc(-c3cc(OC)cc(OC)c3)c(NC(=O)NC(C)(C)C)nc2n1 [PD173074] (first compound 1 µM, partner dose 0.1 µM) | 188
C[C@@H]1CCN(C(=O)CC#N)C[C@@H]1N(C)c1ncnc2[nH]ccc12 + O=C(O)C(=O)Nc1sc2c(c1C(=O)O)CCNC2 [TCS401] (first compound 1 µM, partner dose 1.66667 µM) | 91.5
OCCn1cc(-c2cnc3nnn(Cc4ccc5ncccc5c4)c3n2)cn1 + COc1ccc2c(c1)CCC1C2CCC2(C)C(NCCCCCCN3C(=O)C=CC3=O)CCC12 [U73122] (first compound 1 µM, partner dose 0.4 µM) | 121
Cc1cc(N2CCOCC2)cc2[nH]c(-c3c(NC[C@@H](O)c4cccc(Cl)c4)cc[nH]c3=O)nc12 + O=C(Nc1ccccc1)c1cc([N+](=O)[O-])ccc1Cl [GW9662] (first compound 0.2 µM, partner dose 2 µM) | 151
Nc1cccc2c1CN(C1CCC(=O)NC1=O)C2=O (stereo not drawn) [lenalidomide] + O=C(Nc1ccccc1)c1cc([N+](=O)[O-])ccc1Cl [GW9662] (first compound 1 µM, partner dose 2 µM) | 365
